Drawing on PubChem BioAssay AID1487 (National Center for Advancing Translational Sciences (NCATS), 2009), this text covers AC50 for 55 compounds.

The experiment is described as follows: qHTS Assay for Modulators of Lamin A Splicing. The note with it: HeLa LMNA splicing GFP/RFP minigene ratio, 48 h. In outline: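 S3 HeLa stable clones carrying a lamin A-EGFP splicing minigene plus DsRed2 were seeded at 600 cells/well in Opti-MEM with 2% FBS, pin-dosed and incubated 48 h at 37°C. Acumen cytometry (488 nm) gave the GFP/RFP total-intensity ratio.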

Where [1] appears, read: measured here: GFP splicing reporter channel.
Setting [2] is: measured here: RFP viability control channel.

Each structure is given as a SMILES string. This is one part of the list. Shown are side measurements of this screen, not its main read-out; they come without a call. The list favours compounds with an active or inconclusive main result. Potencies come from curve fits of mixed quality, noted in brackets.

With `CC(NC(=O)CCc1nnc(CCCc2ccccc2)o1)c1ccccc1` (configuration not stated), the concentration at half-maximal activity (AC50) was 0.00891 µM [falling, full curve, poor fit] under setting [1] and 14.1 µM [falling, partial curve] under setting [2].
For the compound `CCCC(=O)Nc1ncnc2c1ncn2[C@@H]1O[C@H]2COP(=O)(O)O[C@@H]2[C@@H]1OC(=O)CCC`, under setting [1], the AC50 was 0.316 µM [falling, single point].
In the case of `COc1ccc2nc(SCCN(C)C)[nH]c2c1`, under setting [2], the AC50 is 3.98 µM [falling, partial curve, poor fit].
For `CCOC(=O)Cc1c(C)c2c(O)cc(O)cc2oc1=O`, under setting [2], the half-maximal activity concentration (AC50) is 25.1 µM [rising, single point].
Turning to `CCN1CCN(S(=O)(=O)c2ccc(S(=O)(=O)N(CC)Cc3ccccc3)cc2)CC1`, the half-maximal activity concentration (AC50) under setting [2] is 12.6 µM [rising, partial curve, poor fit].
Regarding `CCCc1cc(=O)n2[nH]c(NCc3ccc(Cl)cc3Cl)nc2n1`, under setting [2], the AC50 is 31.6 µM [falling, single point].
Regarding `O=C(Nc1ccc(N2CCN(C(=O)c3ccco3)CC2)c(Cl)c1)c1cccs1`, the concentration at half-maximal activity (AC50) under setting [1] is 20 µM [rising, partial curve, poor fit] and the concentration at half-maximal activity (AC50) under setting [2] is 17.8 µM [rising, single point].
In the case of `CC(C)(C)c1ccc(S(=O)(=O)Nc2ccc(Cc3ccncc3)cc2)cc1`, the AC50 under setting [2] was 3.16 µM [rising, full curve].
Still for that read-out and setting: the result for `CSC(=S)N/N=C/c1ccc(N(C)C)cc1` reads 35.5 µM [falling, single point].
As to `COCCN1C(=O)C(=O)/C(=C(/O)c2ccc(C)cc2)C1c1ccccn1` (configuration not stated), the AC50 under setting [1] was 0.01 µM [rising, full curve, poor fit].
Turning to `CCCCCn1c(CN2CCN(c3cccc(Cl)c3)CC2)nc2c1c(=O)n(C)c(=O)n2C`, the half-maximal activity concentration (AC50) was 11.2 µM [rising, partial curve, poor fit] under setting [1] and 10 µM [rising, partial curve] under setting [2].
Turning to `Cc1ccc(CSCCNC(=O)c2cccc([N+](=O)[O-])c2)cc1`, the concentration at half-maximal activity (AC50) under setting [1] was 12.6 µM [rising, single point] and the AC50 under setting [2] is 35.5 µM [rising, single point].
For `O=C(CSc1nn(-c2ccc(F)cc2)c(=S)s1)NC(=O)NCc1ccco1`, the half-maximal activity concentration (AC50) reads like this: under setting [1], 35.5 µM [rising, single point]; under setting [2], 35.5 µM [rising, single point].
In the case of `CNC(=O)COC(=O)c1ccccc1C(=O)c1ccc(Cl)c([N+](=O)[O-])c1`, the half-maximal activity concentration (AC50) under setting [2] is 35.5 µM [falling, partial curve, poor fit].
Take `CCn1c(SCC(=O)Nc2ccc3c(c2)c2ccccc2n3CC)nnc1-c1cnccn1`: the AC50 under setting [1] is 12.6 µM [rising, single point] and the AC50 under setting [2] is 12.6 µM [rising, single point].
Turning to `Cc1ccc(C2(C)NC(=O)N(CC(=O)c3ccc(Cl)s3)C2=O)cc1` (configuration not stated), the AC50 is 5.62 µM [rising, partial curve] under setting [1] and 8.91 µM [rising, partial curve, poor fit] under setting [2].
For `O=C(Nc1cnn(Cc2ccc(Cl)cc2Cl)c1)c1noc2c1CCCC2`, the AC50 under setting [1] was 10 µM [rising, partial curve, poor fit] and the concentration at half-maximal activity (AC50) under setting [2] was 15.8 µM [rising, partial curve].
With `Cc1c(Br)c([N+](=O)[O-])nn1CCCC(=O)Nc1sc2c(c1C#N)CCC2`, under setting [2], the half-maximal activity concentration (AC50) is 5.62 µM [rising, partial curve, poor fit].
Consider `CCn1ncc(Br)c1C(=O)Nc1sc2c(c1C(N)=O)CCC2`, for which the AC50 under setting [1] was 0.794 µM [rising, partial curve].
The same measure, in the same setting: with `CC1CN(C)C(c2ccccc2)C(C)C12NC(=O)NC2=O` (configuration not stated) the figure was 12.6 µM [rising, single point].
For `Cc1cccc(CN2CCN(CC(=O)NCCCN3CCN(c4ccc(F)cc4)CC3)C2=O)c1`, the half-maximal activity concentration (AC50) under setting [2] is 12.6 µM [rising, partial curve].
As for `COc1ccc(-c2ccc(SCC(=O)c3cccs3)nn2)cc1`, the AC50 under setting [2] was 35.5 µM [rising, single point].
Still for that read-out and setting: with `Cc1c(Cc2ccccc2)c(=O)oc2c(CN(C)C)c(O)c(Cl)cc12` the figure was 0.02 µM [falling, full curve, poor fit].
Take `Oc1ccc(N=Nc2n[nH]c(-c3ccc(Cl)cc3)n2)cc1`: under setting [1], the AC50 was 3.16 µM [rising, partial curve].
As to `CCCCCC(=O)NC(=S)NNC(=O)c1ccc([N+](=O)[O-])cc1`, the AC50 under setting [2] was 12.6 µM [rising, partial curve].
The same measure, in the same setting: the result for `Cc1sc2nc(C(C)C)nc(SCC(=O)N3c4ccccc4CC3C)c2c1C` (configuration not stated) reads 35.5 µM [rising, partial curve, poor fit]; that for `COc1cc(NC(=S)NCCC(c2ccccc2)c2ccccc2)c(OC)cc1Cl`, 31.6 µM [rising, single point].
As to `CCNc1nc(SCCOc2ccc(Cl)cc2Cl)nc(N(C)C)n1`, under setting [1], the AC50 was 17.8 µM [falling, single point].
Take `O=C(Cc1ccc(F)cc1)c1ccc(O)cc1O`: under setting [2], the half-maximal activity concentration (AC50) was 11.2 µM [rising, partial curve].
Regarding `CCOC(=O)Cc1csc(NC(=O)c2csc(C)c2)n1`, under setting [2], the AC50 is 22.4 µM [rising, single point].
Regarding `Cc1cccc(NC(=O)CSc2nc3c([nH]c4ccccc43)c(=O)n2-c2cc(C)cc(C)c2)c1`, the concentration at half-maximal activity (AC50) reads like this: under setting [1], 20 µM [falling, partial curve, poor fit]; under setting [2], 14.1 µM [falling, partial curve, poor fit].
With `Cc1ccc(/C=C/C(=O)c2ccccc(=O)c2O)cc1C`, the concentration at half-maximal activity (AC50) under setting [2] was 28.2 µM [rising, single point].
`O=C1NC2(CCC3(CC2)OCCO3)NN1c1ccccc1`: the half-maximal activity concentration (AC50) under setting [1] was 0.0562 µM [rising, full curve, poor fit].
Take `COc1ccccc1C(=O)Nc1cccc(OCc2cc(=O)n3ccccc3n2)c1`: the AC50 under setting [2] was 7.08 µM [falling, full curve, poor fit].
Still for that read-out and setting: the result for `Cc1cccc(C)c1NC(=O)CSc1nnc(Cn2nnc(-c3ccccc3)n2)n1-c1ccccc1` reads 12.6 µM [rising, single point].
As to `COC(=O)c1ccc(NC(=O)c2cnn(-c3ccc(Cl)cc3)c2C2CCN(C(=O)OC(C)(C)C)CC2)cc1`, under setting [1], the AC50 was 35.5 µM [falling, partial curve, poor fit].
Turning to `C=CCNC(=O)c1ccc(-n2cccc2)cc1`, the half-maximal activity concentration (AC50) under setting [2] is 0.141 µM [falling, full curve, poor fit].
In the case of `CCCCNC(=S)N(C)/N=C/c1ccc(OCC(=O)Nc2ccc(OC)cc2)c(OC)c1`, the AC50 under setting [2] was 35.5 µM [rising, single point].
The same measure, in the same setting: the result for `Cc1cc(C)c(NC(=O)c2cc(C)nc3c2c(C)nn3-c2cccc(F)c2)c(C)c1` reads 3.16 µM [rising, full curve, poor fit].
As for `CC1CCc2c(sc(NC(=O)CN3CCN(C(=O)c4ccco4)CC3)c2C#N)C1` (configuration not stated), the AC50 runs as follows: under setting [1], 10 µM [rising, partial curve, poor fit]; under setting [2], 17.8 µM [rising, single point].
As to `COc1cccc(C(=O)N2N=C(c3ccccc3)CC2(O)C(F)(F)F)c1` (configuration not stated), the AC50 was 12.6 µM [rising, partial curve, poor fit] under setting [1] and 35.5 µM [rising, single point] under setting [2].
Regarding `CC(C)(C)C1CCc2onc(C(=O)Nc3ccc(F)cc3F)c2C1` (configuration not stated), the AC50 is, setting by setting: under setting [1], 25.1 µM [rising, single point]; under setting [2], 28.2 µM [rising, single point].
On to `O=C(NCC1CCCO1)C(c1ccccn1)N(Cc1ccccc1Cl)C(=O)CN1C(=O)c2ccccc2S1(=O)=O` (configuration not stated), for which the AC50 under setting [1] is 0.00501 µM [rising, full curve, poor fit].
In the case of `CCn1c(Cn2nnc(-c3ccccc3)n2)nnc1SCC(=O)Nc1cccc(C)c1C`, the concentration at half-maximal activity (AC50) is 25.1 µM [rising, single point] under setting [1] and 20 µM [rising, single point] under setting [2].
As to `Oc1ccc(Br)cc1-c1cc(-c2ccccc2)n[nH]1`, the AC50 runs as follows: under setting [1], 15.8 µM [rising, single point]; under setting [2], 22.4 µM [rising, partial curve].
With `CCCCOc1ccccc1C1NC(=O)NC(C)=C1C(=O)OCCOCC` (configuration not stated), the AC50 was 12.6 µM [rising, single point] under setting [1] and 11.2 µM [rising, single point] under setting [2].
As to `CCOC(=O)N1CCN(C(=O)c2oc3ccc(S(=O)(=O)N4CCOCC4)cc3c2C)CC1`, the AC50 under setting [2] was 15.8 µM [rising, single point].
As for `CC1(C)Cc2c(sc3nc(-c4ccccc4Cl)n(N)c(=O)c23)CO1`, the AC50 under setting [2] was 17.8 µM [rising, single point].
For `CC(=O)Nc1ccccc1C(=O)C(=O)Nc1ccc(C(=O)N2CCOCC2)cc1`, the AC50 under setting [1] is 0.0708 µM [rising, full curve, poor fit] and the AC50 under setting [2] was 0.0794 µM [rising, full curve, poor fit].
Turning to `COc1cccc2sc(Nc3nnc(-c4ccc(F)cc4)o3)nc12`, under setting [2], the AC50 is 15.8 µM [falling, single point].
The same measure, in the same setting: with `CCn1nccc1C(=O)Nc1ccc(S(=O)(=O)NC23CC4CC(CC(C4)C2)C3)cc1` the figure was 15.8 µM [rising, partial curve]; with `O=C(c1ccc2c(c1)OCO2)[C@@H]1[C@@H]2C(=O)N(C3CCCCC3)C(=O)[C@@H]2C2c3ccccc3C=CN21` (some centres not stated), 2.82 µM [rising, partial curve, poor fit].
Turning to `COc1ccccc1C(=O)Nc1nnc(SCc2cc(=O)c3ccccc3[nH]2)s1`, the AC50 by setting is: under setting [1], 0.0251 µM [rising, full curve, poor fit]; under setting [2], 0.0891 µM [rising, full curve, poor fit].
Take `CCS(=O)(=O)c1ccc(N)cc1`: the AC50 under setting [1] is 35.5 µM [rising, single point].
Regarding `O=C(Nc1ccc(Cl)cc1)C1CC(=O)n2c(nc3ccccc32)N1` (configuration not stated), the AC50 under setting [2] was 10 µM [falling, partial curve].

One may read the AC50 as the concentration at which the activity in the assay is half-maximal.
